Measurements taken from the supplement of paper PMC8256030.
The list shows a part of the results. Single values are uncertain here, since repeats match poorly.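 HEK293T cells were given each compound shortly before transfection with a reporter in which red mCherry is followed by the SARS-CoV-2 frameshift element and then GFP in the −1 frame, so GFP appears only after frameshifting.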

Each compound was assayed on HEK293T (assay: percent viability (nuclei count) relative to control; higher = more viable cells). Settings: 10 µM; 24 h.

| Compound | percent viability |
| --- | --- |
| O=C(O)c1cc(/N=N/c2ccc(S(=O)(=O)Nc3ccccn3)cc2)ccc1O [sulfasalazine] | 145% |
| FCOC(C(F)(F)F)C(F)(F)F [sevoflurane] | 196% |
| Clc1ccc(CO/N=C(\Cn2ccnc2)c2ccc(Cl)cc2Cl)c(Cl)c1 | 272% |
| O=C(O)c1cc(O)c2c(c1)C(C1c3cc(C(=O)O)cc(O)c3C(=O)c3c(OC4OC(CO)C(O)C(O)C4O)cccc31)c1cccc(OC3OC(CO)C(O)C(O)C3O)c1C2=O (stereo not drawn) | 215% |
| NC[C@H]1O[C@H](O[C@H]2[C@H](O)[C@@H](O[C@H]3O[C@H](CO)[C@@H](O)[C@H](N)[C@H]3O)[C@H](N)C[C@@H]2N)[C@H](N)[C@@H](O)[C@@H]1O | 168% |
| CN(C(=O)CN(CCO)CC(=O)N(C)C(C)(C)Cc1ccccc1)C(C)(C)Cc1ccccc1 [oxetacaine] | 310% |
| CCNC(=O)[C@@H]1CCCN1C(=O)[C@H](CCCNC(=N)N)NC(=O)[C@H](CC(C)C)NC(=O)[C@@H](Cc1cn(Cc2ccccc2)cn1)NC(=O)[C@H](Cc1ccc(O)cc1)NC(=O)[C@H](CO)NC(=O)[C@H](Cc1c[nH]c2ccccc12)NC(=O)[C@H](Cc1cnc[nH]1)NC(=O)[C@@H]1CCC(=O)N1 [histrelin] | 130% |
| COc1cc([C@@H]2c3cc4c(cc3[C@@H](O[C@@H]3O[C@@H]5CO[C@@H](c6cccs6)O[C@H]5[C@H](O)[C@H]3O)[C@H]3COC(=O)[C@H]23)OCO4)cc(OC)c1O [teniposide] | 53.2% |
| CCCCC[C@H](O)/C=C/[C@@H]1[C@H]2C/C(=C/CCCC(=O)O)O[C@H]2C[C@H]1O [Epoprostenol] | 210% |
| Cc1nc2c([nH]1)c(=O)n(C)c(=O)n2Cc1ccco1 [furafylline] | 209% |
| O=C(CCCl)NCCc1ccccc1 [fenaclon] | 80% |
| CCN1CC(CCN2CCOCC2)C(c2ccccc2)(c2ccccc2)C1=O (stereo not drawn) [doxapram] | 82.5% |
| CCN(CC)CCNC(=O)c1cc(S(C)(=O)=O)ccc1OC [tiapride] | 196% |
| CC(C)[C@H](N)C(=O)OCC(CO)OCn1cnc2c(=O)nc(N)[nH]c21 (stereo partly drawn) | 376% |
| COCc1c(C(C)C)nc(C(C)C)c(/C=C/[C@@H](O)C[C@@H](O)CC(=O)O)c1-c1ccc(F)cc1 [Cerivastatin] | 42.7% |
| N=C(N)NC(=O)c1nc(Cl)c(N)nc1N [amiloride] | 177% |
| CC(C)C(=O)OCC(=O)[C@@]12O[C@H](C3CCCCC3)O[C@@H]1C[C@H]1[C@@H]3CCC4=CC(=O)C=C[C@]4(C)[C@H]3[C@@H](O)C[C@@]12C [Ciclesonide] | 226% |
| CN[C@H]1C(=O)N[C@@H]2Cc3ccc(cc3)Oc3cc4cc(c3O[C@@H]3O[C@H](C(=O)O)[C@@H](O)[C@H](O)[C@H]3NC(=O)CCCCCCCCC(C)C)Oc3ccc(cc3Cl)[C@@H](O)[C@@H]3NC(=O)[C@H](NC(=O)[C@@H]4NC(=O)[C@@H](NC2=O)c2cc(cc(O)c2Cl)Oc2cc1ccc2O)c1ccc(O)c(c1)-c1c(O[C@H]2O[C@H](CO)[C@@H](O)[C@H](O)[C@@H]2O)cc(O)cc1[C@@H](C(=O)NCCCN(C)C)NC3=O [dalbavancin] | 138% |
| CCCCC[C@H](O)CC[C@@H]1[C@H]2Cc3cccc(OCC(=O)O)c3C[C@H]2C[C@H]1O [Treprostinil] | 206% |
| Nc1ccn([C@@H]2CS[C@H](CO)O2)c(=O)n1 [lamivudine] | 141% |
| N/N=c1\[nH][nH]/c(=N\N)c2ccccc12 [dihydralazine] | 223% |
| CCCOC(=O)c1ccc(N)cc1 [risocaine] | 35.1% |
| CC=CC(=O)N(CC)c1ccccc1C [crotamiton] | 296% |
| CN(C)CCOC(C)(c1ccccc1)c1ccc(Br)cc1 (stereo not drawn) [embramine] | 465% |
| CC1=C(C/C=C(\C)CCC[C@H](C)CCC[C@H](C)CCCC(C)C)C(=O)c2ccccc2C1=O [phytomenadione] | 86.5% |
| CC(C)CN(C[C@@H](OP(=O)(O)O)[C@H](Cc1ccccc1)NC(=O)O[C@H]1CCOC1)S(=O)(=O)c1ccc(N)cc1 [fosamprenavir] | 268% |
| Clc1ccccc1C(c1ccccc1)(c1ccccc1)n1ccnc1 [clotrimazole] | 63.8% |
| CCC/C=C\C=C/C(=O)N[C@@H](CC(N)=O)C(=O)NC(CC(N)=O)C(=O)N[C@@H](C(=O)N[C@H](CCCN)C(=O)N[C@@H](C(=O)N[C@@H](C(=O)N[C@@H](C(=O)N[C@H](C(=O)N[C@@H](Cc1ccccc1)C(=O)N[C@H](CCCN)C(=O)NC(C(=O)N[C@H](C(=O)NC(C(=O)NCC(=O)N[C@@H](CC(C)C)C(=O)N[C@H](C)C(=O)NC(C(=O)O)C1CCC(O)C(Cl)C1)C1CCC(O)CC1)[C@H](C)O)C1CCC(O)CC1)[C@H](C)O)C1CCC(O)CC1)C1CCC(O)CC1)[C@H](C)O)C1CCC(O)CC1 (stereo partly drawn) | 176% |

Molecules shown so far that contain fluorine, in the order listed:

| Compound | percent viability |
| --- | --- |
| FCOC(C(F)(F)F)C(F)(F)F [sevoflurane] | 196% |
| COCc1c(C(C)C)nc(C(C)C)c(/C=C/[C@@H](O)C[C@@H](O)CC(=O)O)c1-c1ccc(F)cc1 [Cerivastatin] | 42.7% |
